PubChem BioAssay AID504808, Drosophila RNAi Screening Center | 2011
Test: 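Fly genes required to hold E2F transcription in check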 (primary screen). Cell system: Drosophila S2 cells. Knock-down reagent: long dsRNA against Drosophila genes. Detection: 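Firefly luciferase driven by E2F sites, normalised to Renilla luciferase on the same minimal promoter, measured by plate reader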. Scale: E2F firefly: higher = more E2F reporter activity; Renilla normaliser: higher = more normaliser reporter signal. Active means: 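a knock-down counted as active when the firefly/Renilla E2F signal rose above 50%, a threshold chosen arbitrarily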.
The deposit covers about 21,000 reagents; shown is an unselected part of those that have a named target and a result. Of all reagents, 18 (0.084%) got an active call. 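Raw counts without plate normalisation, one of two replicates; the ratio scores behind the calls were not deposited.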 The numbers tell different reagents against one gene apart. Names joined by + are all predicted targets of the reagent. No sequences are given here. The record does not give: the amount of reagent, the time to read-out.

E2F firefly, rep 1 | Renilla normaliser, rep 1 | outcome | gene | reagent no.
1.23e5 | 6222 | inactive | CG14151 | 1
1.50e5 | 8035 | inactive | Rrp47 (Ribosomal RNA processing 47) | 1
1.23e5 | 4211 | inactive | Semp1 (Seminal metalloprotease-1) | 1
1.43e5 | 5436 | inactive | Nckx30C | 1
1.52e5 | 4824 | inactive | Nckx30C | 2
1.61e5 | 5410 | inactive | Nckx30C | 3
1.22e5 | 4811 | inactive | Nckx30C | 4
7394 | 796 | inactive | APC4 (Anaphase Promoting Complex subunit 4) | 1
91611 | 3614 | inactive | CG9663 | 1
81176 | 3166 | inactive | CG10947 | 1
1.02e5 | 4161 | inactive | CG14829 | 1
1.05e5 | 3963 | inactive | CG9173 | 1
92292 | 4013 | inactive | Tcs5 (Threonyl-carbamoyl synthesis 5) | 1
1.12e5 | 4740 | inactive | CG6870 | 1
1.49e5 | 5958 | inactive | Pis (Phosphatidylinositol synthase) | 1
2.55e5 | 7038 | inactive | CG13008 | 1
2.59e5 | 7535 | inactive | CG13008 | 2
87159 | 4508 | inactive | CG10479 | 1
67555 | 3754 | inactive | syd (sunday driver) | 1
51549 | 3277 | inactive | Liprin-gamma | 1
1.47e5 | 6766 | inactive | CASK | 1
1.31e5 | 7106 | inactive | CASK | 2
1.54e5 | 7244 | inactive | CASK | 3
1.30e5 | 5064 | inactive | Tango11 (Transport and Golgi organization 11) | 1
1.39e5 | 4947 | inactive | Tango11 (Transport and Golgi organization 11) | 2
82244 | 3405 | inactive | CG32447 | 1
1.31e5 | 6466 | inactive | CG32447 | 2
1.20e5 | 6490 | inactive | Ir85a (Ionotropic receptor 85a) | 1
1.35e5 | 6338 | inactive | Lar (Leukocyte-antigen-related-like) | 1
80785 | 3591 | inactive | Lar (Leukocyte-antigen-related-like) | 2
78226 | 3467 | inactive | Coq3 (Coenzyme Q3) | 1
1.49e5 | 8177 | inactive | nes (nessy) | 1
90930 | 3839 | inactive | IA-2 (IA-2 protein tyrosine phosphatase) | 1
74942 | 4142 | inactive | IA-2 (IA-2 protein tyrosine phosphatase) | 2
1.35e5 | 6865 | inactive | dod (dodo) | 1
1.76e5 | 8134 | inactive | mib1 (mind bomb 1) | 1
54653 | 4068 | inactive | fd3F (retired record) | 1
8497 | 744 | inactive | CG9519 | 1
4198 | 110 | inactive | CG30496 | 1
81195 | 3427 | inactive | Wdr81 (WD repeat domain 81) | 1
1.38e5 | 6392 | inactive | Exd2 (Exonuclease 3'-5' domain-containing 2) | 1
6672 | 732 | inactive | sordd2 + sordd1 | 1
1.10e5 | 6205 | inactive | Art6 (Arginine methyltransferase 6) | 1
94558 | 4065 | inactive | cni (cornichon) | 1
1.33e5 | 7224 | inactive | ND2 (retired record) | 1
1.07e5 | 6225 | inactive | CG17121 | 1
1.02e5 | 5810 | inactive | CG31099 | 1
1.01e5 | 3993 | inactive | ltl (larval translucida) | 1
1.07e5 | 4300 | inactive | ltl (larval translucida) | 2
1.14e5 | 4799 | inactive | La (La autoantigen-like) | 1
98783 | 4311 | inactive | gas (gasoline) | 1
89464 | 3831 | inactive | Etl1 | 1
32736 | 4714 | inactive | gammaCOP (Coat Protein (coatomer) gamma) | 1
1.38e5 | 6788 | inactive | Cad86C (Cadherin 86C) | 1
1.26e5 | 6452 | inactive | Cad86C (Cadherin 86C) | 2
70169 | 3548 | inactive | beta-PheRS (Phenylalanyl-tRNA synthetase, beta-subunit) | 1
1.15e5 | 4202 | inactive | CG10747 | 1
1.34e5 | 6810 | inactive | SmydA-4 (SET and MYND domain containing, arthropod-specific, member 4) | 1
64863 | 3214 | inactive | Prx3 (Peroxiredoxin 3) | 1
8131 | 708 | inactive | CG34450 | 1
1.19e5 | 5372 | inactive | unc80 (uncoordinated 80) | 1
1.59e5 | 6872 | inactive | Pgant9 (Polypeptide N-Acetylgalactosaminyltransferase 9) | 1
1.50e5 | 5166 | inactive | Pgant9 (Polypeptide N-Acetylgalactosaminyltransferase 9) | 2
1.36e5 | 5019 | inactive | Pgant9 (Polypeptide N-Acetylgalactosaminyltransferase 9) | 3
1.44e5 | 4451 | inactive | Pgant9 (Polypeptide N-Acetylgalactosaminyltransferase 9) | 4
1.55e5 | 5443 | inactive | Pgant9 (Polypeptide N-Acetylgalactosaminyltransferase 9) | 5
1.56e5 | 4842 | inactive | Pgant9 (Polypeptide N-Acetylgalactosaminyltransferase 9) | 6
1.06e5 | 5094 | inactive | Cpr51A (Cuticular protein 51A) | 1
76460 | 3466 | inactive | CG4751 | 1
1.26e5 | 6539 | inactive | Mesh1 (Metazoan SpoT homolog-1) | 1
1.22e5 | 5839 | inactive | Osi16 (Osiris 16) | 1
1.01e5 | 4505 | inactive | CG17217 | 1
96063 | 4425 | inactive | CG16800 | 1
82857 | 3688 | inactive | RIC-3 (RIC3 acetylcholine receptor chaperone) | 1
87494 | 3743 | inactive | RIC-3 (RIC3 acetylcholine receptor chaperone) | 2
1.60e5 | 5378 | inactive | CG34447 | 1
1.16e5 | 6143 | inactive | Fcp3C (Follicle cell protein 3C) | 1
6936 | 784 | inactive | Upf1 (Upf1 RNA helicase) | 1
1.42e5 | 6567 | inactive | nmdyn-D7 | 1
91768 | 3944 | inactive | CG18810 | 1
1.25e5 | 6047 | inactive | CG17159 + CG17162 | 1
1.36e5 | 6710 | inactive | CG17159 + CG17162 | 2
1.30e5 | 4254 | inactive | Jhedup (Juvenile hormone esterase duplication) | 1
1.22e5 | 6831 | inactive | CG6709 + Hez | 1
1.11e5 | 6325 | inactive | CG6709 + Hez | 2

Records above whose gene name starts with E or e:
E2F firefly, rep 1 | Renilla normaliser, rep 1 | outcome | gene | reagent no.
1.38e5 | 6392 | inactive | Exd2 (Exonuclease 3'-5' domain-containing 2) | 1
89464 | 3831 | inactive | Etl1 | 1
